# Results of single-concentration screens

The chains behind the UniProt entries cited, without tags or fusion partners. Residues count along the entry.
UniProt Q8IDJ8, 1-583: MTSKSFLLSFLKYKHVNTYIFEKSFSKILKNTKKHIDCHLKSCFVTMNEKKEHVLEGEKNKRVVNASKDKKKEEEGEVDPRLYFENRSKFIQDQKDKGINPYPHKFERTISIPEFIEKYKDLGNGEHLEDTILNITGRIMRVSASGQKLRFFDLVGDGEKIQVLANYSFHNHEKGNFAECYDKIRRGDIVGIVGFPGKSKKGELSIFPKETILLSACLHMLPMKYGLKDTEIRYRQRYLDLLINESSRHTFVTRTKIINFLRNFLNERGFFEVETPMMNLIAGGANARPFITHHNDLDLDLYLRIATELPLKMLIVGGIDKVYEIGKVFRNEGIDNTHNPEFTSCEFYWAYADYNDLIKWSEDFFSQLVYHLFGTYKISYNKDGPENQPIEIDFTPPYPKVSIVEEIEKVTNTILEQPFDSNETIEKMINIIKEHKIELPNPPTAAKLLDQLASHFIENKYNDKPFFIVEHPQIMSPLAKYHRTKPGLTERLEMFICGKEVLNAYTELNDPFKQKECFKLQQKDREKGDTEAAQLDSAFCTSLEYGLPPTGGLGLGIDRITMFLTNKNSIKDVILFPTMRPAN
UniProt P9WPC5, whole entry: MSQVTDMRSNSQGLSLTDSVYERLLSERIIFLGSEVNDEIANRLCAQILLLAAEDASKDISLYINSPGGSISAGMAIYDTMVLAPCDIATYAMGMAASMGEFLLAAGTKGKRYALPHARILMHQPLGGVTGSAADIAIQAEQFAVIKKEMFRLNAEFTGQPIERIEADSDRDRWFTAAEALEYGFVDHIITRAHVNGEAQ
UniProt P9WPC3, whole entry partner: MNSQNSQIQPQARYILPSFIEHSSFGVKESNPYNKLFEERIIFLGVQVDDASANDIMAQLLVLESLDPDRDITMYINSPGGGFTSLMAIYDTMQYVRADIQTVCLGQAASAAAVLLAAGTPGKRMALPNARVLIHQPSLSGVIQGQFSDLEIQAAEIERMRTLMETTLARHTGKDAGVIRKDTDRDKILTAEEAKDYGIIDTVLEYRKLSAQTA

Measurements from “University of Dundee, Small-Polar-MMV Screening Library” (2021), ChEMBL document CHEMBL3988442.

A: 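Lysine-tRNA ligase, Plasmodium falciparum 3D7 (UniProt Q8IDJ8). Enzyme assay of the cytosolic lysyl-tRNA synthetase in 384-well plates, read by luminescence. Tested at 30 µM. Higher reads as stronger inhibition, judged from the few compounds that gave an IC50. About 69,000 compounds were tested under these conditions; 0.071% (about 49) showed 50% or more at least once.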
B: 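Protease assay of ClpP1P2, read by the AMC dye that it sets free. Target: ClpP1P2, Mycobacterium tuberculosis (UniProt P9WPC5 and UniProt P9WPC3). Tested at 50 µM. Higher reads as stronger inhibition, judged from the few compounds that gave an IC50. Most other retested compounds had strongly negative values. About 69,000 compounds were tested under these conditions; 0.015% (about 10) showed 50% or more at least once.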

Each number is a percent effect as filed.
How 0% and 100% were set is not recorded. Most values in the screen are low, and negative values occur.
The compounds are a random part of those screened.

- CNc1ncc(C(=O)N[C@H]2CN(CCCSC)C[C@@H]2C2CC2)cn1 : A: 1.421%; B: -2.431%
- OCC1(CC2CC2)CCCN(Cc2cnc(C3CCCCC3)nc2)C1 (stereo not shown) : A: 1.594%; B: 1.924%
- CN(C)C(=O)COC[C@]12COC[C@H]1CN(CCc1ccccc1)C2 : A: 4.584%; B: -18.25%
- Cc1cnc(N2C(=O)CSC2c2ccc(N(C)C)cc2)s1 (stereo not shown) : A: 0.846%; B: -6.885%
- Cn1nccc1CNC(=O)C1CCCCC1 : A: 3.642%; B: 1.236%
- O=C(NCCC(=O)N1CCCCCC1)c1c(O)cc(F)cc1F : A: -1.513%; B: 3.389%
- c1cncc(-c2nnc(C3(c4ccc5c(c4)OCO5)CCOCC3)o2)c1 : A: 1.751%; B: 0.6947%
- COc1cc(NCc2c(C)noc2C)c(C(=O)N(C)C)cc1OC : A: 7.802%; B: 1.598%
- CN(C)S(=O)(=O)N1CCN(c2cc(-n3cccc3)ncn2)CC1 : A: -1.229%; B: 1.248%
- Cn1c(N2CCOCC2)nc2cc(C(=O)N3CCCOCC3)ccc21 : A: 5.218%; B: -29.97%
- O=C(O)[C@]12CCCN(Cc3ccccn3)[C@@H]1CCN(c1cnccn1)C2 : A: 6.05%; B: -4.982%
- O=C(c1ccsc1)N1CCc2c(CNc3ncccn3)n[nH]c2C1 : A: 2.943%; B: 0.3448%
- CCN(Cc1noc(CC(C)C)n1)Cc1ccccc1C : A: 2.044%; B: -1.4%
- CN1CCOC(C(=O)Nc2nnc(Cc3ccc(F)cc3)[nH]2)C1 (stereo not shown) : A: 3.852%; B: -9.868%
- O=C(c1ccccc1)N1CCC[C@]2(C[C@@H](Oc3ncccc3F)CO2)C1 : A: -8.559%; B: -6.898%
- N#Cc1ccc(CN2CCCC(Cn3cncn3)C2)c(F)c1 (stereo not shown) : A: -3.629%; B: -3%
- Cc1cncc(NCc2ccccc2N2CCOCC2)c1 : A: 2.029%; B: -12.45%
- O=C(CN(CC(O)c1ccc(F)cc1)C1CC1)NCc1cccs1 (stereo not shown) : A: 4.396%; B: -0.7967%
- Cc1cccc(-n2ncc3c2CCCC3NCc2cccc(O)c2)c1C (stereo not shown) : A: 4.101%; B: -17.96%
- Cc1nc(CN(C)C2CCN(Cc3cnc(C)s3)C2)no1 (stereo not shown) : A: -1.812%; B: -11.94%
- CC(C)Nc1nc(N2CCCC2)nc2c1CCN(S(C)(=O)=O)CC2 : A: -0.6605%; B: -31.43%
- CCN(C)S(=O)(=O)NCC(C)(O)c1ccsc1 (stereo not shown) : A: 1.852%; B: -8.832%
- CC(C)CCc1noc(C[S+]([O-])CC(=O)NCc2ccccc2)n1 (stereo not shown) : A: -0.04473%; B: 2.05%
- COc1cc(N2CC[C@@H](OC)[C@@H]2Cc2ccccc2)ncn1 : A: 0.0836%; B: -15.94%
- Cc1c(C(=O)N2CCCSCC2)nnn1-c1ccccc1Cl : A: 5.051%; B: 0.5172%
- CCOc1ncccc1CNC(=O)N1CCCC1c1ccsc1 (stereo not shown) : A: 2.489%; B: -23.17%
- O=C1CN(C(=O)c2cc3ccc(Br)cc3[nH]2)CCN1 : A: -2.687%; B: -0.103%
- CNS(=O)(=O)c1csc(C(=O)N(C)Cc2sccc2C)c1 : A: 2.832%; B: 3.424%
- Cc1nnc2n1CCN(CCS(=O)(=O)c1ccccc1)C2 : A: 3.698%; B: -7.407%
- CC(C)S(=O)(=O)NCC1CCCN(C(=O)c2ccc(F)cc2)C1 (stereo not shown) : A: -2.215%; B: -0.8609%
- CC(C)N(CC(N)=O)Cc1c(Cl)ccc2cccnc12 : A: 3.516%; B: 6.417%
- Cc1cc(C)c2c(N3CCCN(C(=O)C4CCC4)CC3)ncnc2n1 : A: -0.5835%; B: -14.67%
- CC(=O)N1CCC2(CCN(CC(C)C)C2)C1 (stereo not shown) : A: 0.5277%; B: -4.764%
- Cc1nc(CCNC(=O)C(N)c2c(C)n[nH]c2C)sc1C (stereo not shown) : A: 8.912%; B: -2.932%
- CC(C)Cc1nc(CN2CCCC2Cn2cncn2)no1 (stereo not shown) : A: 2.978%; B: -19.46%
- COCCN(C)C(=O)c1nc2c(s1)CCCN2c1ncccn1 : A: -1.995%; B: -9.116%
- Cc1cccc(O[C@H]2COCCN(Cc3sc(C)nc3C)C2)n1 : A: -0.4258%; B: 3.183%

For reference, 4 entries once more:

CCN(Cc1noc(CC(C)C)n1)Cc1ccccc1C gave A: 2.044%; B: -1.4%.
COc1cc(NCc2c(C)noc2C)c(C(=O)N(C)C)cc1OC gave A: 7.802%; B: 1.598%.
O=C(c1ccsc1)N1CCc2c(CNc3ncccn3)n[nH]c2C1 gave A: 2.943%; B: 0.3448%.
Cc1nc(CCNC(=O)C(N)c2c(C)n[nH]c2C)sc1C (stereo not shown) gave A: 8.912%; B: -2.932%.